Measured values: the supplement of paper PMC10849652
The list shows a part of the results.

Sequences of proteins named here, by UniProt entry; tags and fusion partners are left off. A change or cut given only in a name is not applied to a line headed by its entry.
UniProt Q86V88: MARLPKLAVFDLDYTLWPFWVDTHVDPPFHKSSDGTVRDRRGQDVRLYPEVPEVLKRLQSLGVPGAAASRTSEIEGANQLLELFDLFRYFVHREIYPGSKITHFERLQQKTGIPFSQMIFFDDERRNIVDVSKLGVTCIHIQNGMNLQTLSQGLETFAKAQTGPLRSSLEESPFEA
UniProt P49736, whole entry, looked up: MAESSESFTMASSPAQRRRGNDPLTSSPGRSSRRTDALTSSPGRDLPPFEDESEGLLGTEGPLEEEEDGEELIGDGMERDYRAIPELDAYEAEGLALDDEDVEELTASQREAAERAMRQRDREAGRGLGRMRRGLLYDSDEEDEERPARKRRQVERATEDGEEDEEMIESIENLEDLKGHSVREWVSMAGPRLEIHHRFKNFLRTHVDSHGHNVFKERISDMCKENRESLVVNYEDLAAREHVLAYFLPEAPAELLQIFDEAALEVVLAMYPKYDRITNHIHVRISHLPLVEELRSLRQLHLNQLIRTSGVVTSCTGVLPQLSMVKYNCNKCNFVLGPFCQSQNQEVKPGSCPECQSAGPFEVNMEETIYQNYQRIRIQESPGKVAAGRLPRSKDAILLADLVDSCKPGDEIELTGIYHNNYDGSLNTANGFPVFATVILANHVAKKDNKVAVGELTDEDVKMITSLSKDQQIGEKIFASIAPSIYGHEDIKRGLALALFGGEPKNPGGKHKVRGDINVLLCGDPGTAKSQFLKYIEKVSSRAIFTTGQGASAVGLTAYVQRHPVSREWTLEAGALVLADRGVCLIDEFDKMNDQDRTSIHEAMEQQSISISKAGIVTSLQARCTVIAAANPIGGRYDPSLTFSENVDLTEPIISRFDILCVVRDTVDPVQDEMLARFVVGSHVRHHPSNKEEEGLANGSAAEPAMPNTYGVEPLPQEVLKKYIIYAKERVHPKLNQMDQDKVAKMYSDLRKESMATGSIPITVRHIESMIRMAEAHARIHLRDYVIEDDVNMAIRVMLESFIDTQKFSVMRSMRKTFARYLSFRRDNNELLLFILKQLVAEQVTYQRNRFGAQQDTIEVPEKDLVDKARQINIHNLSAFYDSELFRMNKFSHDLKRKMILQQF
UniProt Q86W50: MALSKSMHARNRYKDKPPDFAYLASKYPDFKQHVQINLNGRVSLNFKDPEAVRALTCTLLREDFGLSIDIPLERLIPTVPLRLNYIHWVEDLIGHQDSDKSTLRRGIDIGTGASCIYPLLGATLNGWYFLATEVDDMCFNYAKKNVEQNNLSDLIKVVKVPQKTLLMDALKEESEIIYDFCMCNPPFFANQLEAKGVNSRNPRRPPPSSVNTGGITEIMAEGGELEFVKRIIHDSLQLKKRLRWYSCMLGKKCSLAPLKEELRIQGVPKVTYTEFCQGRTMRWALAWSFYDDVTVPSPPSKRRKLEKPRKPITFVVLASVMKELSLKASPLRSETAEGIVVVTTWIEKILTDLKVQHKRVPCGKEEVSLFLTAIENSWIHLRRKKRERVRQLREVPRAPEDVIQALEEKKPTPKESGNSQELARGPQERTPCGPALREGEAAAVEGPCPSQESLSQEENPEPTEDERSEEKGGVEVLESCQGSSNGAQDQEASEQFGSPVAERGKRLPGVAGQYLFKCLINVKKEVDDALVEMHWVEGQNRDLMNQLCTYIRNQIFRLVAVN
UniProt Q8WXB1: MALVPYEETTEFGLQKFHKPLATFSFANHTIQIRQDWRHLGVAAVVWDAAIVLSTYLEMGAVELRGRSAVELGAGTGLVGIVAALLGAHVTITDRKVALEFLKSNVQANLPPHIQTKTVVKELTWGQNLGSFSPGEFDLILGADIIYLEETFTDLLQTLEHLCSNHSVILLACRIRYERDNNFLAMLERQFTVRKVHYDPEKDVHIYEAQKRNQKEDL
UniProt Q9NRN9: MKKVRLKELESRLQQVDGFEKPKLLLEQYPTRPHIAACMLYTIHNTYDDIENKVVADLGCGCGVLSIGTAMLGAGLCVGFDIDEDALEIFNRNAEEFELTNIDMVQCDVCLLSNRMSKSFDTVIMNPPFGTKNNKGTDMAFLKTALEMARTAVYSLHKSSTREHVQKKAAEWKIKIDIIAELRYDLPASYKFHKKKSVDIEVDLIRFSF
UniProt Q6ZWT7: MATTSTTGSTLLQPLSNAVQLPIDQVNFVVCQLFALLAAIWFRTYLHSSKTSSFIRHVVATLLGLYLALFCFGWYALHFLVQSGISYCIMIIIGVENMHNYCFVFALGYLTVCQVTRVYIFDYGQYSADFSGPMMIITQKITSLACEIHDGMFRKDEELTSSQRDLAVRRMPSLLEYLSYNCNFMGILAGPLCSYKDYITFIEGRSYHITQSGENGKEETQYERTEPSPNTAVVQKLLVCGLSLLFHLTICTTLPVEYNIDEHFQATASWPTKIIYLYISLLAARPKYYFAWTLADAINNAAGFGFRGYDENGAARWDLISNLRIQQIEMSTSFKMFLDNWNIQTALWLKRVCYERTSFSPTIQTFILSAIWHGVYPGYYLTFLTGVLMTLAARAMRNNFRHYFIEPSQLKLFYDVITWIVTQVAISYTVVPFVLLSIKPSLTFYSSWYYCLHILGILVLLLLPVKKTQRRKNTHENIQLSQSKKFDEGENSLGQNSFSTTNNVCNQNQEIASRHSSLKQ
UniProt P55081: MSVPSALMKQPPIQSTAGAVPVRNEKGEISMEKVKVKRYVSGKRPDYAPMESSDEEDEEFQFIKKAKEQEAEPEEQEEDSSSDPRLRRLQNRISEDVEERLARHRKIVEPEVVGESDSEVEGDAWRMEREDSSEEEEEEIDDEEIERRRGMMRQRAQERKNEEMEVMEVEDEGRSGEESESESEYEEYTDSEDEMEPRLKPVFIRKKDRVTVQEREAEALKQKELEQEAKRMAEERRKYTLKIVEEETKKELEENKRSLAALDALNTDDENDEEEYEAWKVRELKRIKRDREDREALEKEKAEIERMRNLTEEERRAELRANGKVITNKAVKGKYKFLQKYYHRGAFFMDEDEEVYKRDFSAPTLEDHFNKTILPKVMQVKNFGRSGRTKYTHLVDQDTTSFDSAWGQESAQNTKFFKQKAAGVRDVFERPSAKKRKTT
UniProt Q14814: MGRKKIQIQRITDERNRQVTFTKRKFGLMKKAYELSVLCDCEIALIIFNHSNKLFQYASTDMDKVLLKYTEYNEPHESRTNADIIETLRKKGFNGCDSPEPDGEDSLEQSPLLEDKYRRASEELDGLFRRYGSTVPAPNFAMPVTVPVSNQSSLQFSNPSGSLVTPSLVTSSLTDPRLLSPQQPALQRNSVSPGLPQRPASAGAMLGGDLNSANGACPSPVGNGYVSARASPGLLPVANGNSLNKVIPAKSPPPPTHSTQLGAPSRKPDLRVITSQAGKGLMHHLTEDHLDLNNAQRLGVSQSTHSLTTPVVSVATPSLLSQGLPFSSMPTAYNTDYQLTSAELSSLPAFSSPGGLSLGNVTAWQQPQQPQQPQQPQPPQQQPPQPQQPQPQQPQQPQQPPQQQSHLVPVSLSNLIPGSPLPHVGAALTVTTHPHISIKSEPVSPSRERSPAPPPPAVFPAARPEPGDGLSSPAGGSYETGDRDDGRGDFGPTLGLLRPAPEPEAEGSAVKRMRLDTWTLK
UniProt Q9BUE0: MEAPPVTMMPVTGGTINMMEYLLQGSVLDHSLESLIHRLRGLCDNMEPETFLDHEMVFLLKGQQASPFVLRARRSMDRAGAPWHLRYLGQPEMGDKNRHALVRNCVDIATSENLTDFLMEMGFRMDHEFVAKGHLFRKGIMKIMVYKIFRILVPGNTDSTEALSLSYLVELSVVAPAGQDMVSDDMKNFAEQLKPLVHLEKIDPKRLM
UniProt Q9NPJ6: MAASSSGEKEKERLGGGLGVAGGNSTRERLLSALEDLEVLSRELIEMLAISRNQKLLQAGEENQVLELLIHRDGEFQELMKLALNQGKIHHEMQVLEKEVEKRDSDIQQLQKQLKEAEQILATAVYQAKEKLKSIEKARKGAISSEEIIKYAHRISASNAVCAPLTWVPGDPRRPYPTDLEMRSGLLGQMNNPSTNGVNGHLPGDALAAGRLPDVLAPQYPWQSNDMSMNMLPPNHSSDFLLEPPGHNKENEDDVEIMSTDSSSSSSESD
UniProt Q96AQ8: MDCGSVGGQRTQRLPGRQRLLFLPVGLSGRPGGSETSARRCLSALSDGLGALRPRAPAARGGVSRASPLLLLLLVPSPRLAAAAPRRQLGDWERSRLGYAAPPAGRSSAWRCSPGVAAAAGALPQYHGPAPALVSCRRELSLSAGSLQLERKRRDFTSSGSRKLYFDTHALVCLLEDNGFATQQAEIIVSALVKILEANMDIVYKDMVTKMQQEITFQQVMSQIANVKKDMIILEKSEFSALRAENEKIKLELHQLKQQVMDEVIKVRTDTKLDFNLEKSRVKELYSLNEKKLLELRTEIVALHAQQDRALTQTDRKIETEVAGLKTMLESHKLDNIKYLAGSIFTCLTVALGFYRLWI
UniProt O95983: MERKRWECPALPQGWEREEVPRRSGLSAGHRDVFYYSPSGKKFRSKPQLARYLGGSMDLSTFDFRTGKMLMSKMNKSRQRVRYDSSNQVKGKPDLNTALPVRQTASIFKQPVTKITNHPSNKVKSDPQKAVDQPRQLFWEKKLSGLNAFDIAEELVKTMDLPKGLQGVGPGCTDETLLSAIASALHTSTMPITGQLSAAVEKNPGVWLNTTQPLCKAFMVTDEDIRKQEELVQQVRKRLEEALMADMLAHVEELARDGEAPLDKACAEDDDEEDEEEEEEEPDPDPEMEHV
UniProt Q9H7H0: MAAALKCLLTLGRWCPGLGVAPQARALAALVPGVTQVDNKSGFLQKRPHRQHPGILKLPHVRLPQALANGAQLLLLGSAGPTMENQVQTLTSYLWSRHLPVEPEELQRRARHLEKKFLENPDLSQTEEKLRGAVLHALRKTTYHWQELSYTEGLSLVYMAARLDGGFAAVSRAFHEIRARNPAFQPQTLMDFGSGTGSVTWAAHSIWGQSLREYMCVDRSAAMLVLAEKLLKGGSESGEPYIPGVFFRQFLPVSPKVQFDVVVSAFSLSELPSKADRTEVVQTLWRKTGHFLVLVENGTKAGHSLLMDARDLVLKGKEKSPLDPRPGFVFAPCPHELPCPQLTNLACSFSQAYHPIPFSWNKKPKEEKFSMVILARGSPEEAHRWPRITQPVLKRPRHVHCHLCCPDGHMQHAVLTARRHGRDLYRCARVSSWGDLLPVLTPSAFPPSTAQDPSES
UniProt Q71SY5: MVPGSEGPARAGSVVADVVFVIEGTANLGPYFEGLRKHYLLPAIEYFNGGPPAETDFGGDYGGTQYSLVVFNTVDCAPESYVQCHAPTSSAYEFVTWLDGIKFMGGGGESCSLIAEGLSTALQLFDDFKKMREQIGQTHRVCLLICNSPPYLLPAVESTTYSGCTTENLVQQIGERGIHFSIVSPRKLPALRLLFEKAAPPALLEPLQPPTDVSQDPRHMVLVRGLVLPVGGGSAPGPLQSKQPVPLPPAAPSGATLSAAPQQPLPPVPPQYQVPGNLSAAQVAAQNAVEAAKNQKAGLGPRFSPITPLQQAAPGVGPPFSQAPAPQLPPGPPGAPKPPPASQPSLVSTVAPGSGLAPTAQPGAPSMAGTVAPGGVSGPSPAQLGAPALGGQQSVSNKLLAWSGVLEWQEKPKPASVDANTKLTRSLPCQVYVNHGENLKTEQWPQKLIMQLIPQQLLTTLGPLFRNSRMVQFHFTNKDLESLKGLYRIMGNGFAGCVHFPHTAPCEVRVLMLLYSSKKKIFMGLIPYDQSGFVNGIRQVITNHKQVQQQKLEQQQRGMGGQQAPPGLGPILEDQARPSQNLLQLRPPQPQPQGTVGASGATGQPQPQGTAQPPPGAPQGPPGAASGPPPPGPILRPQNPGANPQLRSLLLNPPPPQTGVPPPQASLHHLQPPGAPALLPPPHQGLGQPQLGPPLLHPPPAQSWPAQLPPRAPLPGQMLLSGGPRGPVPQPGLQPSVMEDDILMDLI
UniProt P23368: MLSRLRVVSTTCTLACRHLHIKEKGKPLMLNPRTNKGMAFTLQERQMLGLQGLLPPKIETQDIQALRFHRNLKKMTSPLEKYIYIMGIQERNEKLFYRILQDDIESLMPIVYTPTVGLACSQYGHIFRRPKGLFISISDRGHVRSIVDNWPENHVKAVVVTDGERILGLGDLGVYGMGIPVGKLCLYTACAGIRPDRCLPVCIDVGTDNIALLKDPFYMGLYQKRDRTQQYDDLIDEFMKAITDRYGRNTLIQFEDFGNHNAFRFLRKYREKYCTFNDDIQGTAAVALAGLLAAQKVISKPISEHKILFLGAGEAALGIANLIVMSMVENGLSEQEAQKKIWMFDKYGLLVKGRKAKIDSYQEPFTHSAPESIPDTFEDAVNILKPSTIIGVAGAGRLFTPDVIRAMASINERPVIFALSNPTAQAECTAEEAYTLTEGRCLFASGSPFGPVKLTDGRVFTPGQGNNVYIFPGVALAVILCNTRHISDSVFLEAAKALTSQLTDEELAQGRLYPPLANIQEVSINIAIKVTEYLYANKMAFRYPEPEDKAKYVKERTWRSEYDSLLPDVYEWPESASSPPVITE

Assays:
Assay in all cases: log2 fold change, soluble protein after heating vs DMSO (PISA); higher = thermal stabilisation; K562 cells, 10 uM, 30 min; active = over 0.2 and 3.5 SD of the protein, either way, in both replicates (recomputed)
[1] = compound: NC(=O)Nc1cc(-c2cccc(F)c2)sc1C(=O)N[C@H]1CCCNC1
Summary of the method: (§1)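 Values are thermal stability changes relative to control samples and are taken from duplicates. They are stated as log2 fold changes. Before quantification by TMTpro 16plex LC-MS/MS with equalised channel sums, K562 cells at 2×10^6 cells/mL were treated with 10 μM compound for 30 min, heated in aliquots for 3 min across 48°C-58°C, pooled, extracted in PBS with 0.5% NP-40 at 4°C, and centrifuged at 21,000xg for 90 min to give the soluble supernatant.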

[2] = compound: NC(=O)c1cnc(N[C@@H]2CCCC[C@@H]2N)nc1Nc1cccc(-n2nccn2)c1
Summary of the method: as §1

[3] = compound: NC1(c2ccc(-c3nc4ccn5c(=O)[nH]nc5c4cc3-c3ccccc3)cc2)CCC1
Summary of the method: as §1

[4] = compound: NCC(=O)Nc1ccc(-n2nc(C(F)(F)F)cc2-c2ccc3c(ccc4ccccc43)c2)cc1
Summary of the method: as §1

entinostat = compound: Nc1ccccc1NC(=O)c1ccc(CNC(=O)OCc2cccnc2)cc1 [entinostat]
Summary of the method: as §1

vorinostat = compound: O=C(CCCCCCC(=O)Nc1ccccc1)NO [vorinostat]
Summary of the method: as §1

citarinostat = compound: O=C(CCCCCCNC(=O)c1cnc(N(c2ccccc2)c2ccccc2Cl)nc1)NO [citarinostat]
Summary of the method: as §1

silmitasertib = compound: O=C(O)c1ccc2c(c1)nc(Nc1cccc(Cl)c1)c1ccncc12 [silmitasertib]
Summary of the method: as §1

[5] = compound: O=C1NC(=O)C(c2cnc3ccccn23)=C1c1cn2c3c(cc(F)cc13)CN(C(=O)N1CCCCC1)CC2
Summary of the method: as §1

[6] = compound: c1cc(OCCN2CCCCC2)cc(-c2n[nH]c3ccc(-c4nnc[nH]4)cc23)c1
Summary of the method: as §1

Measured: log2 fold change

MCAT (UniProt Q8IVS2)
inactive: [1] 0.046 | [2] 0.068 | [3] 0.137 | [4] 0.056 | entinostat -0.047 | vorinostat 0.005 | citarinostat -0.035 | silmitasertib 0.025 | [5] 0.18 | [6] -0.044

MED1 (UniProt Q15648)
inactive: [1] 0.027 | [2] -0.064 | [3] 0.002 | [4] -0.113 | entinostat -0.018 | vorinostat 0.05 | citarinostat -0.001 | silmitasertib -0.002 | [5] 0.063 | [6] -0.124

METTL3 (UniProt Q86U44)
inactive: [1] 0.011 | [2] -0.034 | [3] -0.055 | [4] -0.033 | entinostat -0.017 | vorinostat 0.009 | citarinostat 0.013 | silmitasertib -0.03 | [5] -0.047 | [6] -0.013

MDP1 (UniProt Q86V88)
inactive: [1] -0.035 | [2] -0.024 | [3] -0.032 | [4] 0.021 | entinostat 0.019 | vorinostat -0.117 | citarinostat 0.025 | silmitasertib 0.01 | [5] -0.073 | [6] -0.014

MCM2 (UniProt P49736)
inactive: [1] 0.004 | [2] -0.05 | [3] -0.095 | [4] -0.012 | entinostat 0.025 | vorinostat 0.044 | citarinostat 0.032 | silmitasertib -0.005 | [5] -0.02 | [6] -0.019

METTL16 (UniProt Q86W50)
inactive: [1] 0.021 | [2] -0.046 | [3] -0.057 | [4] 0.021 | entinostat -0.004 | vorinostat 0.085 | citarinostat 0.056 | silmitasertib 0.043 | [5] -0.007 | [6] -0.073

MEAK7 (UniProt Q6P9B6)
inactive: [1] -0.011 | [2] -0.117 | [3] -0.122 | [4] -0.025 | entinostat 0.027 | vorinostat 0.069 | citarinostat 0.053 | silmitasertib -0.028 | [5] -0.021 | [6] 0.016

METTL21A (UniProt Q8WXB1)
inactive: [1] 0.1 | [2] 0.023 | [3] -0.045 | [4] 0.056 | entinostat -0.021 | vorinostat -0.021 | citarinostat 0.074 | silmitasertib 0.031 | [5] -0.024 | [6] -0.149

METTL5 (UniProt Q9NRN9)
inactive: [1] -0.014 | [2] 0.04 | [3] 0.016 | [4] 0.02 | entinostat -0.035 | vorinostat 0.017 | citarinostat 0.015 | silmitasertib -0.032 | [5] -0.035 | [6] -0.004

MBOAT2 (UniProt Q6ZWT7)
inactive: [1] 0.059 | [2] -0.076 | [3] -0.005 | [4] 0.02 | entinostat -0.007 | vorinostat 0.038 | citarinostat 0.079 | silmitasertib 0.064 | [5] 0.097 | [6] -0.04

MFAP1 (UniProt P55081)
inactive: [1] -0.021 | [2] 0.014 | [3] 0.04 | [4] 0.13 | entinostat -0.077 | vorinostat -0.03 | citarinostat -0.026 | silmitasertib -0.007 | [5] -0.069 | [6] -0.028

MEF2D (UniProt Q14814)
inactive: [1] -0.058 | [2] 0.003 | [3] -0.041 | [4] -0.058 | entinostat -0.031 | vorinostat -0.06 | citarinostat 0.057 | silmitasertib -0.006 | [5] -0.058 | [6] -0.143

MED18 (UniProt Q9BUE0)
inactive: [1] -0.08 | [2] -0.137 | [3] -0.079 | [4] -0.084 | entinostat -0.015 | vorinostat -0.016 | citarinostat 0.03 | silmitasertib 0.059 | [5] -0.129 | [6] -0.05

MED4 (UniProt Q9NPJ6)
inactive: [1] 0.102 | [2] -0.008 | [3] 0.003 | [4] 0.028 | entinostat 0.019 | vorinostat -0.081 | citarinostat 0.032 | silmitasertib 0.025 | [5] -0.062 | [6] -0.08

MCUR1 (UniProt Q96AQ8)
inactive: [1] -0.043 | [2] -0.048 | [3] 0.011 | [4] 0.01 | entinostat -0.028 | vorinostat -0.026 | citarinostat -0.001 | silmitasertib -0.023 | [5] -0.036 | [6] -0.018

MAVS (UniProt Q7Z434)
inactive: [1] 0.014 | [2] 0.012 | [3] -0.035 | [4] 0.038 | entinostat -0.002 | vorinostat -0.014 | citarinostat 0.045 | silmitasertib -0.017 | [5] -0.005 | [6] -0.012

METAP1 (UniProt P53582)
inactive: [1] 0.002 | [2] -0.039 | [3] 0.041 | [4] 0.027 | entinostat -0.033 | vorinostat -0.034 | citarinostat -0.021 | silmitasertib 0.02 | [5] 0.016 | [6] -0.012

MCMBP (UniProt Q9BTE3)
inactive: [1] -0.016 | [2] -0.103 | [3] 0.022 | [4] -0.047 | entinostat 0.016 | vorinostat 0.143 | citarinostat 0.046 | silmitasertib 0.03 | [5] -0.017 | [6] 0.141

MCRIP1 (UniProt I3L4Q0)
inactive: [1] -0.047 | [2] -0.052 | [3] 0.039 | [4] -0.127 | entinostat 0.029 | vorinostat 0.006 | citarinostat 0.016 | silmitasertib 0.012 | [5] -0.011 | [6] -0.013

MBD3 (UniProt O95983)
inactive: [1] 0.096 | [2] 0.006 | [3] -0.052 | [4] -0.016 | entinostat 0.016 | vorinostat -0.039 | citarinostat 0.075 | silmitasertib 0.088 | [5] 0.036 | [6] -0.07

METTL17 isoform 3 (UniProt Q9H7H0)
inactive: [1] 0.137 | [2] 0.026 | [3] -0.107 | entinostat -0.065 | citarinostat 0.1 | silmitasertib 0.037 | [6] -0.101

MED25 isoform 3 (UniProt Q71SY5)
active: [3] -0.591
inactive: [1] -0.016 | [2] -0.021 | [4] 0.064 | entinostat 0.065 | vorinostat -0.349 | citarinostat 0.052 | silmitasertib 0.174 | [6] -0.148

Quoted at random: two records from the list, in no set order.
MBD3 (UniProt O95983)
inactive: [1] 0.096 | [2] 0.006 | [3] -0.052 | [4] -0.016 | entinostat 0.016 | vorinostat -0.039 | citarinostat 0.075 | silmitasertib 0.088 | [5] 0.036 | [6] -0.07

MCMBP (UniProt Q9BTE3)
inactive: [1] -0.016 | [2] -0.103 | [3] 0.022 | [4] -0.047 | entinostat 0.016 | vorinostat 0.143 | citarinostat 0.046 | silmitasertib 0.03 | [5] -0.017 | [6] 0.141

Next part

ME2 (UniProt P23368)
inactive: [1] -0.015 | [2] -0.034 | [3] 0.07 | [4] -0.033 | entinostat -0.013 | vorinostat 0.058 | citarinostat 0.025 | silmitasertib 0.186 | [5] -0.017 | [6] -0.093

MED27 (UniProt Q6P2C8)
inactive: [1] -0.033 | [2] -0.331 | [3] -0.028 | entinostat 0.131 | vorinostat -0.016 | silmitasertib -0.057 | [5] 0.019

MED12 isoform 2 (UniProt Q93074)
inactive: [1] 0.022 | [2] -0.455 | [3] -0.191 | entinostat 0.066 | vorinostat 0.22 | citarinostat 0.181 | silmitasertib 0.016 | [5] -0.005 | [6] -0.311

MFSD5 isoform 2 (UniProt Q6N075)
inactive: [1] -0.037 | [2] 0.035 | [3] -0.137 | [4] -0.089 | entinostat -0.099 | vorinostat -0.093 | citarinostat -0.009 | silmitasertib -0.033 | [5] -0.193 | [6] -0.049

MBOAT1 (UniProt Q6ZNC8)
inactive: [1] -0.113 | [2] -0.186 | [4] -0.238 | entinostat -0.012 | citarinostat -0.041 | [5] -0.082 | [6] -0.125

MERTK (UniProt Q12866)
inactive: [1] -0.123 | [2] 0.012 | [3] -0.167 | [4] -0.011 | entinostat 0.039 | citarinostat 0.067 | silmitasertib 0.037 | [5] -0.204 | [6] 0.018
